{"source": "PubChem BioAssay AID1259424 | University of Nebraska Medical Center – 2018", "screen": "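Rank knockdowns across the genome by resemblance to the KSR1 depletion profile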 (primary screen)", "system": "human HCT116 colon cancer cells", "knock-down reagent": "siRNA pool against human genes, 50 nM", "detection": "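Log2 levels of six mRNAs (branched-DNA multiplex), adjusted by two reference genes and the non-targeting median, then scored against the average KSR1 knockdown pattern as Pearson r and euclidean distance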", "scale": "mean correlation with KSR1 profile: higher = expression change more like KSR1 knockdown", "note": "The deposit covers about 14,000 reagents; shown is an unselected part. 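Higher correlation or smaller distance means closer resemblance to KSR1 loss; control wells, including KSR1 knockdowns, recur on many plates.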 Not all columns of the deposit are shown. No sequences are given here. Not stated in the record: the time to read-out."}
{"Target gene": "POMGNT2 (GeneID 84892)", "mean correlation with KSR1 profile": 0.765}
{"Target gene": "SYNJ1 (GeneID 8867)", "mean correlation with KSR1 profile": 0.522}
{"Target gene": "ARHGEF1 (GeneID 9138)", "mean correlation with KSR1 profile": 0.729}
{"Target gene": "SLC24A2 (GeneID 25769)", "mean correlation with KSR1 profile": -0.013}
{"Target gene": "ECHDC1 (GeneID 55862)", "mean correlation with KSR1 profile": 0.000166}
{"Target gene": "AKT2 (GeneID 208)", "mean correlation with KSR1 profile": -0.0509}
{"Target gene": "CACNA1B (GeneID 774)", "mean correlation with KSR1 profile": -0.513}
{"Target gene": "TIMM13 (GeneID 26517)", "mean correlation with KSR1 profile": 0.14}
{"Target gene": "CDH18 (GeneID 1016)", "mean correlation with KSR1 profile": 0.569}
{"Target gene": "NOTCH4 (GeneID 4855)", "mean correlation with KSR1 profile": -0.618}
{"Target gene": "MYO10 (GeneID 4651)", "mean correlation with KSR1 profile": 0.128}
{"Target gene": "GJA3 (GeneID 2700)", "mean correlation with KSR1 profile": -0.678}
{"Target gene": "ZNF254 (GeneID 9534)", "mean correlation with KSR1 profile": 0.273}
{"Target gene": "CELF1 (GeneID 10658)", "mean correlation with KSR1 profile": 0.864}
{"Target gene": "PDIK1L (GeneID 149420)", "mean correlation with KSR1 profile": -0.423}
{"Target gene": "CLP1 (GeneID 10978)", "mean correlation with KSR1 profile": 0.103}
{"Target gene": "NRF1 (GeneID 4899)", "mean correlation with KSR1 profile": -0.399}
{"Target gene": "BAX (GeneID 581)", "mean correlation with KSR1 profile": 0.34}
{"Target gene": "MPZL1 (GeneID 9019)", "mean correlation with KSR1 profile": -0.144}
{"Target gene": "ADGRF3 (GeneID 165082)", "mean correlation with KSR1 profile": 0.765}
{"Target gene": "KIF20B (GeneID 9585)", "mean correlation with KSR1 profile": -0.428}
{"Target gene": "KCNK1 (GeneID 3775)", "mean correlation with KSR1 profile": 0.195}
{"Target gene": "ZC2HC1A (GeneID 51101)", "mean correlation with KSR1 profile": -0.121}
{"Target gene": "PEX3 (GeneID 8504)", "mean correlation with KSR1 profile": 0.211}
{"Target gene": "WNK2 (GeneID 65268)", "mean correlation with KSR1 profile": -0.518}
{"Target gene": "DOCK2 (GeneID 1794)", "mean correlation with KSR1 profile": -0.453}
{"Target gene": "RAMP3 (GeneID 10268)", "mean correlation with KSR1 profile": -0.111}
{"Target gene": "ZBTB16 (GeneID 7704)", "mean correlation with KSR1 profile": -0.415}
{"Target gene": "SH3BGRL3 (GeneID 83442)", "mean correlation with KSR1 profile": -0.146}
{"Target gene": "STEAP1 (GeneID 26872)", "mean correlation with KSR1 profile": -0.32}
{"Target gene": "PPP6R2 (GeneID 9701)", "mean correlation with KSR1 profile": 0.442}
{"Target gene": "HPS1 (GeneID 3257)", "mean correlation with KSR1 profile": -0.398}
{"Target gene": "GPAT3 (GeneID 84803)", "mean correlation with KSR1 profile": 0.605}
{"Target gene": "KCNMB1 (GeneID 3779)", "mean correlation with KSR1 profile": -0.45}
{"Target gene": "STK25 (GeneID 10494)", "mean correlation with KSR1 profile": 0.556}
{"Target gene": "NOM1 (GeneID 64434)", "mean correlation with KSR1 profile": 0.333}

Ordered by “mean correlation with KSR1 profile” (highest first): some entries from above.
{"Target gene": "CDH18 (GeneID 1016)", "mean correlation with KSR1 profile": 0.569}
{"Target gene": "TIMM13 (GeneID 26517)", "mean correlation with KSR1 profile": 0.14}
